Literature values in patent US12115153B2, “Methods of treating cancer” (Kartos Therapeutics, Inc., priority 2018, dated 2024).
At least one compound was matched to its structure with a doubt left.

System: PV patients
Conditions: hydroxyurea (HU) intolerant/resistant subset; cited from earlier work

N#CC[C@H](C1CCCC1)n1cc(-c2ncnc3[nH]ccc23)cn1 [ruxolitinib]
response rates: 21%
